Reference: patent publication US20190276511A1 (BIONTECH RNA PHARMACEUTICALS, published 2019)
These are yes or no findings as the source states them, for the method shown. Some results given as binding are weak or reduced against the parent protein; the word gives no strength. For part of these data: Tags and fused reporters may be left off the sequences shown.

By UniProt entry, the sequences of proteins in these tests, tags left out. Where a name states a change or a piece, a line headed by the entry shows the natural chain unless it says otherwise.
UniProt P25942: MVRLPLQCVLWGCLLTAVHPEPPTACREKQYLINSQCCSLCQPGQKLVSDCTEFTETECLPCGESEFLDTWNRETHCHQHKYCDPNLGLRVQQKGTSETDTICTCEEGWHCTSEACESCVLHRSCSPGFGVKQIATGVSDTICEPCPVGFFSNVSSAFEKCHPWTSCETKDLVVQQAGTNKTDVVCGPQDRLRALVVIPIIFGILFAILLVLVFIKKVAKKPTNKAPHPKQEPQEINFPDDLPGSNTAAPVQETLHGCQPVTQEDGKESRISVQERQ

Assays:
[1] = biological target: T1, CD27-Fc (human, UniProt P26842 20-191); assay: ELISA, coated receptor-Fc
T1 construct: extracellular domain; hinge included for covalent assembly; also called CD27 receptor-Fc fusion protein; not shown: human Fc gamma 1 region including the hinge region
T1 sequence (looked up): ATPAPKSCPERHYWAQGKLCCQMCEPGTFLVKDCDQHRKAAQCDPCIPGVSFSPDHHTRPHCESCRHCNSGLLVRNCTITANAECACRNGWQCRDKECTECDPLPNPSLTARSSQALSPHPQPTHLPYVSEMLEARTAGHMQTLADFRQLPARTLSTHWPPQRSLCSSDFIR

[2] = biological target: T2, OX40-Fc (human, UniProt P43489 29-214); assay: ELISA, coated receptor-Fc
T2 construct: extracellular domain; hinge included for covalent assembly; also called OX40 receptor-Fc fusion protein; not shown: human Fc gamma 1 region including the hinge region
T2 sequence (looked up): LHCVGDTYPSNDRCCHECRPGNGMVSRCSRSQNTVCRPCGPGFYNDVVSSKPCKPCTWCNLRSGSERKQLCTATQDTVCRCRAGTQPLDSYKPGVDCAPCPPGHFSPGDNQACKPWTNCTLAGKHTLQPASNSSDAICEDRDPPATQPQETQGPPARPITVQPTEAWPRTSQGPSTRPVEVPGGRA

[3] = biological target: T1, CD27-Fc; assay: ELISA titration from 316 nM
[4] = biological target: T2, OX40-Fc; assay: ELISA titration from 316 nM
[5] = biological target: T1, CD27-Fc; assay: flow cytometry, soluble receptor-Fc (10 nM) on cell-bound scDuokine
[6] = biological target: T2, OX40-Fc; assay: as above
[7] = biological target: CD27 receptor on cells (human) (UniProt P26842); assay: flow cytometry, receptor on HT1080 cells, second receptor-Fc for detection
[8] = biological target: T3, OX40 receptor on cells (human, UniProt P43489 29-277); assay: as above
T3 sequence (looked up): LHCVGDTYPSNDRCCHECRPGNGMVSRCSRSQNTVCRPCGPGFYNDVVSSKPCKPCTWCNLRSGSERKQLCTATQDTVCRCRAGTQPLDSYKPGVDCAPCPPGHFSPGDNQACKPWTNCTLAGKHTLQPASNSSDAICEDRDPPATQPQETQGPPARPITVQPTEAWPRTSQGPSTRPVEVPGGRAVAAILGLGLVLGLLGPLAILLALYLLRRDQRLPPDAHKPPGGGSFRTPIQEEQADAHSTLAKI

[9] = biological target: CD27 receptor on cells (human) (UniProt P26842); assay: flow cytometry, HT1080 transfectants, 100 nM
[10] = biological target: T3, OX40 receptor on cells; assay: flow cytometry, HT1080 transfectants, 100 nM
[11] = biological target: T1, CD27-Fc; assay: ELISA, 100 nM, immobilized receptor-Fc
[12] = biological target: T2, OX40-Fc; assay: ELISA, 100 nM, immobilized receptor-Fc
[13] = biological target: T4, CD40-Fc (human, UniProt P25942 21-193); assay: ELISA, coated receptor-Fc
T4 construct: extracellular domain; hinge included for covalent assembly; also called CD40 receptor-Fc fusion protein; not shown: human Fc gamma 1 region including the hinge region

[14] = biological target: T4, CD40-Fc; assay: ELISA titration from 316 nM
[15] = biological target: T4, CD40-Fc; assay: flow cytometry, soluble receptor-Fc (10 nM) on cell-bound scDuokine
[16] = biological target: T5, CD40 receptor on cells (human, UniProt P25942 21-277); assay: flow cytometry, receptor on HT1080 cells, second receptor-Fc for detection
[17] = biological target: T5, CD40 receptor on cells; assay: flow cytometry, HT1080 transfectants, 100 nM
[18] = biological target: T4, CD40-Fc; assay: ELISA, 100 nM, immobilized receptor-Fc

Measured: binding

B1: scCD27L-scOX40L (ligand)
chain: SLGWDVAELQLNHTGPQQDPRLYWQGGPALGRSFLHGPELDKGQLRIHRDGIYMVHIQVTLAICSSTTASRHHPTTLAVGICSPASRSISLLRLSFHQGCTIASQRLTPLARGDTLCTNLTGTLLPSRNTDETFFGVQWVRPGGGSGGGSLGWDVAELQLNHTGPQQDPRLYWQGGPALGRSFLHGPELDKGQLRIHRDGIYMVHIQVTLAICSSTTASRHHPTTLAVGICSPASRSISLLRLSFHQGCTIASQRLTPLARGDTLCTNLTGTLLPSRNTDETFFGVQWVRPGGGSGGGSLGWDVAELQLNHTGPQQDPRLYWQGGPALGRSFLHGPELDKGQLRIHRDGIYMVHIQVTLAICSSTTASRHHPTTLAVGICSPASRSISLLRLSFHQGCTIASQRLTPLARGDTLCTNLTGTLLPSRNTDETFFGVQWVRPGGGGSGGGTGGGGSQVSHRYPRIQSIKVQFTEYKKEKGFILTSQKEDEIMKVQNNSVIINCDGFYLISLKGYFSQEVNISLHYQKDEEPLFQLKKVRSVNSLMVASLTYKDKVYLNVTTDNTSLDDFHVNGGELILIHQNPGEFCVLGGGSGGGQVSHRYPRIQSIKVQFTEYKKEKGFILTSQKEDEIMKVQNNSVIINCDGFYLISLKGYFSQEVNISLHYQKDEEPLFQLKKVRSVNSLMVASLTYKDKVYLNVTTDNTSLDDFHVNGGELILIHQNPGEFCVLGGGSGGGQVSHRYPRIQSIKVQFTEYKKEKGFILTSQKEDEIMKVQNNSVIINCDGFYLISLKGYFSQEVNISLHYQKDEEPLFQLKKVRSVNSLMVASLTYKDKVYLNVTTDNTSLDDFHVNGGELILIHQNPGEFCVL
notes: scDuokine from HEK293, FLAG-purified; VH leader left out; also called single-chain Duokine scCD27L-scOX40L; not shown: N-terminal FLAG tag
not listed: [13] | [14] | [15] | [16] | [17] | [18]
binds: all other assays above

B2: scCD27L-scCD40L (ligand)
chain: SLGWDVAELQLNHTGPQQDPRLYWQGGPALGRSFLHGPELDKGQLRIHRDGIYMVHIQVTLAICSSTTASRHHPTTLAVGICSPASRSISLLRLSFHQGCTIASQRLTPLARGDTLCTNLTGTLLPSRNTDETFFGVQWVRPGGGSGGGSLGWDVAELQLNHTGPQQDPRLYWQGGPALGRSFLHGPELDKGQLRIHRDGIYMVHIQVTLAICSSTTASRHHPTTLAVGICSPASRSISLLRLSFHQGCTIASQRLTPLARGDTLCTNLTGTLLPSRNTDETFFGVQWVRPGGGSGGGSLGWDVAELQLNHTGPQQDPRLYWQGGPALGRSFLHGPELDKGQLRIHRDGIYMVHIQVTLAICSSTTASRHHPTTLAVGICSPASRSISLLRLSFHQGCTIASQRLTPLARGDTLCTNLTGTLLPSRNTDETFFGVQWVRPGGGGSGGGTGGGGSGDQNPQIAAHVISEASSKTTSVLQWAEKGYYTMSNNLVTLENGKQLTVKRQGLYYIYAQVTFCSNREASSQAPFIASLCLKSPGRFERILLRAANTHSSAKPCGQQSIHLGGVFELQPGASVFVNVTDPSQVSHGTGFTSFGLLKLGGGSGGGGDQNPQIAAHVISEASSKTTSVLQWAEKGYYTMSNNLVTLENGKQLTVKRQGLYYIYAQVTFCSNREASSQAPFIASLCLKSPGRFERILLRAANTHSSAKPCGQQSIHLGGVFELQPGASVFVNVTDPSQVSHGTGFTSFGLLKLGGGSGGGGDQNPQIAAHVISEASSKTTSVLQWAEKGYYTMSNNLVTLENGKQLTVKRQGLYYIYAQVTFCSNREASSQAPFIASLCLKSPGRFERILLRAANTHSSAKPCGQQSIHLGGVFELQPGASVFVNVTDPSQVSHGTGFTSFGLLKL
notes: scDuokine from HEK293, FLAG-purified; VH leader left out; also called single-chain Duokine scCD27L-scCD40L; not shown: N-terminal FLAG tag
not listed: [2] | [4] | [6] | [8] | [10] | [12]
binds: all other assays above

B3: scCD40L-scOX40L (ligand)
chain: GDQNPQIAAHVISEASSKTTSVLQWAEKGYYTMSNNLVTLENGKQLTVKRQGLYYIYAQVTFCSNREASSQAPFIASLCLKSPGRFERILLRAANTHSSAKPCGQQSIHLGGVFELQPGASVFVNVTDPSQVSHGTGFTSFGLLKLGGGSGGGGDQNPQIAAHVISEASSKTTSVLQWAEKGYYTMSNNLVTLENGKQLTVKRQGLYYIYAQVTFCSNREASSQAPFIASLCLKSPGRFERILLRAANTHSSAKPCGQQSIHLGGVFELQPGASVFVNVTDPSQVSHGTGFTSFGLLKLGGGSGGGGDQNPQIAAHVISEASSKTTSVLQWAEKGYYTMSNNLVTLENGKQLTVKRQGLYYIYAQVTFCSNREASSQAPFIASLCLKSPGRFERILLRAANTHSSAKPCGQQSIHLGGVFELQPGASVFVNVTDPSQVSHGTGFTSFGLLKLGGGGSGGGTGGGGSQVSHRYPRIQSIKVQFTEYKKEKGFILTSQKEDEIMKVQNNSVIINCDGFYLISLKGYFSQEVNISLHYQKDEEPLFQLKKVRSVNSLMVASLTYKDKVYLNVTTDNTSLDDFHVNGGELILIHQNPGEFCVLGGGSGGGQVSHRYPRIQSIKVQFTEYKKEKGFILTSQKEDEIMKVQNNSVIINCDGFYLISLKGYFSQEVNISLHYQKDEEPLFQLKKVRSVNSLMVASLTYKDKVYLNVTTDNTSLDDFHVNGGELILIHQNPGEFCVLGGGSGGGQVSHRYPRIQSIKVQFTEYKKEKGFILTSQKEDEIMKVQNNSVIINCDGFYLISLKGYFSQEVNISLHYQKDEEPLFQLKKVRSVNSLMVASLTYKDKVYLNVTTDNTSLDDFHVNGGELILIHQNPGEFCVL
notes: scDuokine from HEK293, FLAG-purified; VH leader left out; also called single-chain Duokine scCD40L-scOX40L; not shown: N-terminal FLAG tag
not listed: [1] | [3] | [5] | [7] | [9] | [11]
binds: all other assays above
